These are yes or no findings as the source states them, for the method shown. Binding seen in cells or lysates may run through a third protein. Some entries that bind do so weakly or less than the wild type.
What was measured:
[1] = target: wild type (WT) human TRPA1 (Transient Receptor Potential Ankyrin subtype 1) (human) (UniProt O75762); assay: pull-down + native gel or EMSA; Strep-FLAG tandem affinity purification from lysates of HEK293T cells expressing FLAG-MBP- or Strep-MBP-tagged WT or R919* TRPA1; Blue Native PAGE
[2] = target: wild type (WT) human TRPA1 (Transient Receptor Potential Ankyrin subtype 1) (human) (UniProt O75762); assay: pull-down + SEC; Ni2+-FLAG tandem purification from cells co-expressing 8xHis-mCerulean-tagged WT and FLAG-mVenus-tagged R919* TRPA1; dual color FSEC
[3] = target: wild type (WT) human TRPA1 (Transient Receptor Potential Ankyrin subtype 1) (human) (UniProt O75762); assay: pull-down; amylose pulldown of MBP-tagged bait from lysates of co-transfected cells; 3×FLAG-tagged prey detected by HRP-conjugated anti-FLAG immunoblot
[4] = target: R919* human TRPA1 mutant (CRAMPT syndrome truncation) (human) (UniProt O75762); assay: as above
[5] = target: R919* human TRPA1 mutant (CRAMPT syndrome truncation) (human) (UniProt O75762); assay: co-IP + SEC; GFP- and 3×FLAG-tagged subunits co-expressed in HEK293T cells; anti-FLAG immunoprecipitation, eluates analysed by fluorescence size exclusion chromatography (FSEC) of the GFP-tagged subunit; anti-FLAG blot of peak fractions
[6] = target: Δ969–1119 human TRPA1 C-terminal truncation (human) (UniProt O75762); assay: co-IP; C-terminal truncation co-expressed with WT TRPA1; immunoprecipitation of the truncation (Supplementary Fig. 10a)
[7] = target: Δ934–1119 human TRPA1 C-terminal truncation (human) (UniProt O75762); assay: as above
[8] = target: Δ1011–1119 human TRPA1 C-terminal truncation (human) (UniProt O75762); assay: as above

Protein sequences, listed by entry. Tags and fused reporters are not part of them. Lines headed by an entry give the natural chain unless they say otherwise; changes in a name come on top. Residues count along the entry.
UniProt O75762: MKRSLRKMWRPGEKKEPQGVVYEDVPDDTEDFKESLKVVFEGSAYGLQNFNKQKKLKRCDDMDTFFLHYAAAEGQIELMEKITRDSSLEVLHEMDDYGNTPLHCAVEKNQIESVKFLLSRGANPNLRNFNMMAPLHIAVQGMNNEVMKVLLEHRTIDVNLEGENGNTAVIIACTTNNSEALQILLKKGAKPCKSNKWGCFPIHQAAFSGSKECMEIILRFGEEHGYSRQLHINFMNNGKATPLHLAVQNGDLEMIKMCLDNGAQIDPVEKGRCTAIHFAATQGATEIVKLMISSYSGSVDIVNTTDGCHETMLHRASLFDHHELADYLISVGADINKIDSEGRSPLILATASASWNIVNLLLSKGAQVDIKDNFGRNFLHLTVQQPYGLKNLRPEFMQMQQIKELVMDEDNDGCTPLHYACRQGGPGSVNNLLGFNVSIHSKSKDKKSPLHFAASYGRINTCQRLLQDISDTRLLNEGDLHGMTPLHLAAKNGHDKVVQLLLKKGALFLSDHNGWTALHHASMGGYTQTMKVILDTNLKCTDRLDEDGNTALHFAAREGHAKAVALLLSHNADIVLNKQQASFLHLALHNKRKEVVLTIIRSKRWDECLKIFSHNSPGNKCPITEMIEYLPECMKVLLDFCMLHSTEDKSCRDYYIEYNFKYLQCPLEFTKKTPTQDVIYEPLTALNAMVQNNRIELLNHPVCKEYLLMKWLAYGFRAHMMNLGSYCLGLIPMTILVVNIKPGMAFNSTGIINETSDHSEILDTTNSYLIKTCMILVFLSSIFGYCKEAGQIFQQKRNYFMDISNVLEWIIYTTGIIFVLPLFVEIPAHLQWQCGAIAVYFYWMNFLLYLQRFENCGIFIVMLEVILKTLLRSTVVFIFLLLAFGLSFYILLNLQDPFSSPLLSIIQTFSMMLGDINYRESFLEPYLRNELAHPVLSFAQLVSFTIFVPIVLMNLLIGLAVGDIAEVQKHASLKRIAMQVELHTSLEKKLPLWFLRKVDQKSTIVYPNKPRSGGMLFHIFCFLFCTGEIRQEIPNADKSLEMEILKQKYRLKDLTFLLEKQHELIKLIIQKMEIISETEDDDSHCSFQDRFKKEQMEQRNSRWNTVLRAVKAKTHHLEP
Δ1011–1119 human TRPA1 C-terminal truncation: residues 1-1010 of O75762
Δ969–1119 human TRPA1 C-terminal truncation: residues 1-968 of O75762
Δ934–1119 human TRPA1 C-terminal truncation: residues 1-933 of O75762

Measured: binding

R919* human TRPA1 mutant (CRAMPT syndrome truncation) (from UniProt O75762 1-918) (domain or fragment)
binds: [1] | [2] | [3] | [4] | [5]

wild type (WT) human TRPA1 (Transient Receptor Potential Ankyrin subtype 1) (from UniProt O75762 1-1119)
not listed: [2]
binds: all other assays above

From article PMC10199097, “Molecular mechanism of hyperactivation conferred by a truncation of TRPA1” (Nature Communications, 2023)
